Where “and” joins values, the source holds several entries; their conditions need not be identical. Equal values may be shown once. Some of the results follow. Each value is one well over the wells without odorant, computed here; the data are noisy.
Tested on: OR1G1 clone 1488
Assay: odorant receptor activation (CRE luciferase / Renilla) (fold of no-odor wells); higher = more activation
Conditions: 100 µM

Row | SMILES | odorant receptor activation
1 | CC=Cc1ccc(O)c(OC)c1 [isoeugenol] | 0.843 and 2.41
2 | O=C1CCCCCCCCCCCCCCO1 [pentadecalactone] | 0.75
3 | CC12CCC(CC1)C(C)(C)O2 [cineole] | 0.909
4 | O=C1CCCCC1 [Cyclohexanone] | 0.584 and 0.764
5 | C=CCSCC=C [diallyl sulfide] | 1.01
6 | CC(=O)OC1CC2CCC1(C)C2(C)C (stereo not given) [isobornyl acetate] | 1.14 and 1
7 | COC(=O)c1ccccc1O [methyl salicylate] | 0.944
8 | COC(=O)c1ccccc1 [methyl benzoate] | 0.539 and 0.857
9 | C=CC(C)(O)CCC=C(C)C (stereo not given) [linalool] | 1.1
10 | C=CCc1ccc(OC(C)=O)c(OC)c1 [eugenol acetate] | 1.33
11 | CC12C=CCC1C1CCC3CC(=O)CCC3(C)C1CC2 (stereo not given) [androstenone] | 1.18
12 | CC12C=CCC1C1CCC3=CC(=O)CCC3(C)C1CC2 (stereo not given) [androstadienone] | 1.05 and 1.56
13 | CC(C)(C)c1ccc(CCC=O)cc1 [bourgeonal] | 1.01
14 | CCCCCCOC(=O)CCC [hexyl butyrate] | 0.913 and 0.826
15 | CC(=O)c1ccccc1 [acetophenone] | 0.945 and 0.796
16 | CC1=NC(C)SC1C (stereo not given) | 0.886 and 0.822
17 | CCCCCOC(C)=O [n-amyl acetate] | 0.496 and 0.754
18 | CC(=O)OC(C)(C)C1CC=C(C)CC1 (stereo not given) [terpinyl acetate] | 1.03
19 | C=C(C)C1CC=CCC1 (stereo not given) [r-limonene] | 1.17 and 0.45 and 0.901
20 | CCCCCCCCCC=O [decyl aldehyde] | 0.832
21 | CC(=O)C(C)=O [diacetyl] | 1.16
22 | CCCCCCCCOC(C)=O [octyl acetate] | 0.967
23 | C=CCc1ccc(O)c(OC)c1 [eugenol] | 1.48 and 1.33 and 1.11
24 | CCCCCCCOC(C)=O [heptyl acetate] | 1.14 and 1.38
25 | CCCCCC(C)=O [2-heptanone] | 0.857 and 0.691

Tested on: OR1I1 P139R/Y252S clone 1468
Assay: as above
Conditions: 100 µM

Row | SMILES | odorant receptor activation
26 | CC=Cc1ccc(O)c(OC)c1 [isoeugenol] | 1.05 and 2.65
27 | O=C1CCCCCCCCCCCCCCO1 [pentadecalactone] | 0.857
28 | CC12CCC(CC1)C(C)(C)O2 [cineole] | 0.921
29 | O=C1CCCCC1 [Cyclohexanone] | 1.18 and 0.504
30 | C=CCSCC=C [diallyl sulfide] | 0.969
31 | CC(=O)OC1CC2CCC1(C)C2(C)C (stereo not given) [isobornyl acetate] | 1.1
32 | COC(=O)c1ccccc1O [methyl salicylate] | 0.825
33 | COC(=O)c1ccccc1 [methyl benzoate] | 0.964 and 0.488
34 | C=CC(C)(O)CCC=C(C)C (stereo not given) [linalool] | 1.26
35 | C=CCc1ccc(OC(C)=O)c(OC)c1 [eugenol acetate] | 1.71
36 | CC12C=CCC1C1CCC3CC(=O)CCC3(C)C1CC2 (stereo not given) [androstenone] | 1.12
37 | CC12C=CCC1C1CCC3=CC(=O)CCC3(C)C1CC2 (stereo not given) [androstadienone] | 1.06 and 1.68
38 | CC(C)(C)c1ccc(CCC=O)cc1 [bourgeonal] | 1.18
39 | CCCCCCOC(=O)CCC [hexyl butyrate] | 1.05 and 1.09
40 | CC1COCc2cc3c(cc21)C(C)(C)C(C)C3(C)C (stereo not given) [galaxolide] | 2.04 and 4.74
41 | CC(=O)c1ccccc1 [acetophenone] | 0.897 and 0.472
42 | CC1=NC(C)SC1C (stereo not given) | 1.04 and 0.794
43 | CCCCCOC(C)=O [n-amyl acetate] | 0.934 and 0.457
44 | CC(=O)OC(C)(C)C1CC=C(C)CC1 (stereo not given) [terpinyl acetate] | 0.918
45 | C=C(C)C1CC=CCC1 (stereo not given) [r-limonene] | 0.957 and 1.06 and 0.493
46 | CCCCCCCCCC=O [decyl aldehyde] | 1.01
47 | CC(=O)C(C)=O [diacetyl] | 1.19
48 | CCCCCCCCOC(C)=O [octyl acetate] | 0.803
49 | C=CCc1ccc(O)c(OC)c1 [eugenol] | 1.23 and 0.551 and 1.06
50 | CCCCCCCOC(C)=O [heptyl acetate] | 1.03 and 1.42

Tested on: OR1J1 clone 1696
Assay: as above
Conditions: 100 µM

Row | SMILES | odorant receptor activation
51 | CC=Cc1ccc(O)c(OC)c1 [isoeugenol] | 3.12
52 | O=C1CCCCCCCCCCCCCCO1 [pentadecalactone] | 0.801
53 | CCCCCCC=O [heptaldehyde] | 0.693
54 | CC12CCC(CC1)C(C)(C)O2 [cineole] | 1.21
55 | C=CCSCC=C [diallyl sulfide] | 0.662
56 | CC(=O)OC1CC2CCC1(C)C2(C)C (stereo not given) [isobornyl acetate] | 1.15
57 | C=C(C)C1CCC2=CC(=O)CC(C)C2(C)C1 (stereo not given) [amyl laurate] | 1.85
58 | COC(=O)c1ccccc1O [methyl salicylate] | 0.787
59 | C=CC(C)(O)CCC=C(C)C (stereo not given) [linalool] | 0.72
60 | C=CCc1ccc(OC(C)=O)c(OC)c1 [eugenol acetate] | 2.34
61 | CCCCCCOC(=O)CCC [hexyl butyrate] | 0.885
62 | CCCCCOC(C)=O [n-amyl acetate] | 0.928
63 | CC(=O)OC(C)(C)C1CC=C(C)CC1 (stereo not given) [terpinyl acetate] | 1.07
64 | C=C(C)C1CC=CCC1 (stereo not given) [r-limonene] | 1.2
65 | CCCCCCCCCC=O [decyl aldehyde] | 0.862
66 | CC(C)(O)CCCC1=CCC(C=O)CC1 (stereo not given) [lyral] | 0.992
67 | CC(=O)C(C)=O [diacetyl] | 0.704
68 | CCCCCCCCOC(C)=O [octyl acetate] | 0.853
69 | C=CCc1ccc(O)c(OC)c1 [eugenol] | 0.82
70 | CCCCCCCOC(C)=O [heptyl acetate] | 0.739
